Experimental data: PubChem BioAssay AID1259405 (NCATS, 2018)

- Aim: 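Mouse-designed siRNAs used to find CHO productivity engineering targets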 (primary screen)
- Cells: Chinese hamster CHO-K1 ovary cells with stable secreted eGFP expression
- Reagents: single siRNA against mouse genes, 0.8 pmol siRNA per well (2 µl of 400 nM stock)
- Time to read-out: 3 days
- Read-out: 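Percent of the per-plate non-targeting control median for intracellular GFP per well by laser scanning cytometry and for cell viability by ATP luminescence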
- Direction: GFP, % of control: higher = more GFP per well, higher productivity
- Active means: 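a knock-down is called active if GFP reaches 120% or more of non-targeting control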
The whole screen tested about 50,000 reagents; this is a random part of them. Over the whole deposit, about 4,000 (8%) were called active. 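Mouse siRNA library applied to hamster cells; one well for each siRNA.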 Reagents against one gene are numbered here. Not all columns of the deposit are shown.

GFP, % of control, by gene and reagent
Gml2 (glycosylphosphatidylinositol anchored molecule like 2): #1 89.9 inactive; #2 86.7 inactive; #3 94.2 inactive
Firrm (FIGNL1 interacting regulator of recombination and mitosis): #1 82 inactive; #2 102 inactive; #3 78.6 inactive
Ms4a6d (membrane-spanning 4-domains, subfamily A, member 6D): #1 36.4 inactive; #2 164 active; #3 59.1 inactive; #4 69.8 inactive; #5 57.1 inactive; #6 87.8 inactive

Entries listed above with an active call:
GFP, % of control, by gene and reagent
Ms4a6d (membrane-spanning 4-domains, subfamily A, member 6D): #2 164 active

The list goes on:
GFP, % of control, by gene and reagent
Bloc1s4: #1 69.7 inactive; #2 71.2 inactive; #3 74.9 inactive
Ccbe1 (collagen and calcium binding EGF domains 1): #1 34.2 inactive; #2 141 active; #3 34.8 inactive
Edrf1 (erythroid differentiation regulatory factor 1): #1 95.7 inactive; #2 154 active; #3 110 inactive
Pde2a (phosphodiesterase 2A, cGMP-stimulated): #1 110 inactive; #2 61.3 inactive; #3 71.6 inactive
Rasgef1c (RasGEF domain family, member 1C): #1 139 active; #2 109 inactive; #3 68.4 inactive
Abcd3 (ATP-binding cassette, sub-family D member 3): #1 75.2 inactive; #2 78.8 inactive; #3 95.2 inactive
Tdrd6 (tudor domain containing 6): #1 60 inactive; #2 76.6 inactive; #3 65.6 inactive
Smim7 (small integral membrane protein 7): #1 92.8 inactive; #2 59.1 inactive; #3 73.4 inactive
